These are yes or no findings as the source states them, for the method shown. Some entries that bind do so weakly or less than the wild type.
Assays:
[1] = biological target: Human serum C3 (human) (UniProt P01024); test: zymosan ELISA, competition by C3 in human serum for Fab binding to deposited human C3 fragments (FIG. 11)
[2] = biological target: Human serum C3 (human) (UniProt P01024); test: competition zymosan ELISA: human serum (C3) at 1/10 to 1/6250 competes with zymosan-deposited human C3 fragments for the His-tagged Fab at 1 µg/mL
[3] = biological target: Human serum C3 (human) (UniProt P01024); test: competition zymosan ELISA: human serum (C3) at 1/2 to 1/1250 premixed with the His-tagged Fab at 15 µg/mL competes with zymosan-deposited human C3 fragments
[4] = biological target: Human complement protein C3d (hC3d) (human) (UniProt P01024); test: ELISA on immobilized human C3d, antibody at 10 µg/ml, in PBS or with normal human serum 1/2 to 1/50 (y axis without label)
[5] = biological target: Human serum C3 (human) (UniProt P01024); test: competition ELISA: normal human serum (source of full-length C3) at 1/2 to 1/50 competes with immobilized human C3d for the antibody at 10 µg/ml
[6] = biological target: Human complement protein C3d (hC3d) (human) (UniProt P01024); test: binding to immobilized human C3d with or without normal human serum; legend of FIG. 1
[7] = biological target: Human complement protein C3d (hC3d) (human) (UniProt P01024); test: binding of 10 µg/ml antibody to immobilized C3d with NHS at 1/2 to 1/50 dilution or PBS (FIG. 1)

Amino acid sequences for entries named in this document (tags omitted). A change or cut given only in a name is not applied to a line headed by its entry. Residues count along the entry.
UniProt P01024: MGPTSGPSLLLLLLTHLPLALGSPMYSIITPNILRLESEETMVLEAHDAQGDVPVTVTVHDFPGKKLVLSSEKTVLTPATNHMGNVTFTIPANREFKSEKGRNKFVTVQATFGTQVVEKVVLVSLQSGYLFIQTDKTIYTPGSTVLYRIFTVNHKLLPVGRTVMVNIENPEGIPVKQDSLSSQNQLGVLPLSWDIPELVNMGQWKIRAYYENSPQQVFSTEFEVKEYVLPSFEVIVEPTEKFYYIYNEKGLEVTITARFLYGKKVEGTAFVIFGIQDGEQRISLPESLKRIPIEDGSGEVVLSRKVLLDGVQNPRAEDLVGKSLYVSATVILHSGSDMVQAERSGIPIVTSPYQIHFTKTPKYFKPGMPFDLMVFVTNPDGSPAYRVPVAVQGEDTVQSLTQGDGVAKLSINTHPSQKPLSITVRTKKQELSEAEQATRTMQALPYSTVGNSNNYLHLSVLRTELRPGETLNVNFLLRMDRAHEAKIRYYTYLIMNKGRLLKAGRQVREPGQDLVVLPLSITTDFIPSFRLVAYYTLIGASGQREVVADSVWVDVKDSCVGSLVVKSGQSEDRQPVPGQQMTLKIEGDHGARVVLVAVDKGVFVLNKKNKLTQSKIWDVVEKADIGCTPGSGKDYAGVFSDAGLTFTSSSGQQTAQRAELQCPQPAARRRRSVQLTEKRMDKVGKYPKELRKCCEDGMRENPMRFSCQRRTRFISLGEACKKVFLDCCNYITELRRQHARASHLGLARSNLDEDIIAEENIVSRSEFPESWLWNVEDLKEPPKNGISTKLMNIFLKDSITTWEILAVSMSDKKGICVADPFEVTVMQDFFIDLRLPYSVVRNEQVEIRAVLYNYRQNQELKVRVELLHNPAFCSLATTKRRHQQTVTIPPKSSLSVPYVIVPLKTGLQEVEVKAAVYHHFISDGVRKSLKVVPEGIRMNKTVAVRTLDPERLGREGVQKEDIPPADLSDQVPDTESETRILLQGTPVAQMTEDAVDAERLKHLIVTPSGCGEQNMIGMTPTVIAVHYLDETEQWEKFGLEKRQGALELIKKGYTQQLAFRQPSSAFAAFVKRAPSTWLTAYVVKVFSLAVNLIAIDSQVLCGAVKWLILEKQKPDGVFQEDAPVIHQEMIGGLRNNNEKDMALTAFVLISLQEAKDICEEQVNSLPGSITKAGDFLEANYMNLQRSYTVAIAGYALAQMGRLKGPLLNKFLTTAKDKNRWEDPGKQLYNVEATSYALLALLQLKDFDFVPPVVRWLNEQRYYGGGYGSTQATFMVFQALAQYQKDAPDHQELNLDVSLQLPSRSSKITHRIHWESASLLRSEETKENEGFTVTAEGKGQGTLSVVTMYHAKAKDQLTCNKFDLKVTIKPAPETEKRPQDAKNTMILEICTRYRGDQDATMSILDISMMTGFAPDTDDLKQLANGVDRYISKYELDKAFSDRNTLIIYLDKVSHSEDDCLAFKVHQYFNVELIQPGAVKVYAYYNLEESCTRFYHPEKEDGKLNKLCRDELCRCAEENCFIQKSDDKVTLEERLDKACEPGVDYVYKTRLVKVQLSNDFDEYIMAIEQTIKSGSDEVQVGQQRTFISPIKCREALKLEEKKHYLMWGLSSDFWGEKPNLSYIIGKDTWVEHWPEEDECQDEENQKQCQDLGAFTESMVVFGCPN
Human serum C3: residues 23-1663 of P01024
Human complement protein C3d (hC3d): residues 1002-1303 of P01024

Measured: binding

B1: 3NS2 (Fab, V domains shown)
VH: QSVEESGGRLVTPGTPLTLTCTVSGIDLSSYSMGWVRQAPGKGLEWIGIIYNTGRIDYANWAKGRFTISKTSTTVDLKITSPTIGDTATYFCGRGYPGDIWGPGTLVTVSS
VL: DVVMTQTPSSVSAAVGGTVTIKCQASESIYSDLAWYQQKPGQRPKLLIYFASTLASGVPSRFKGSGSGTEYTLTISGVQREDAATYYCLGDYGNSWAFGAGTKVEIK
notes: Chimeric rabbit/human Fab, lambda, with 6xHis tag
binds: [1] | [2] | [3]

B2: 4S12 (Fab, V domains shown)
VH: QEQLVESGGRLVTPGTPLTLTCTVSGFSLSSYHMSWVRQAPGKGLEWIGIIYFTGDASYASWAKGRFTISKTSPTTVDLKITSPTTEDTATYFCARDTDWNSSRTIPFDPWGPGTLVTVSS
VL: SFVLTQPASVQVNLGQTVSLTCTADTLSRTYASWYQQKPGQAPVLLIYRDTSRPSGVPDRFSGSSSGNTATLTISGAQAGDEADYYCATSDGSGSSYQYVFGGGTQLTVTG
notes: as for B1
binds: [1] | [2] | [3]

B3: d301 (Fab, V domains shown)
VH: QSLEESGGRLVTPGTPLTLTCTVSGFSLSTYTLGWVRQAPGKGLEYIGWIDSSGSAYYASWAKGRFTISKASSTTVDLKMAGLTTEDTATYFCASGNTGGDPLYYGMDPWGPGTLVTVSS
VL: DPVLTQTPSSTSAAVGGTVTIKCQASQNIGRWLAWYQQKPGQPPKLLIYRASDLASGVPSRFKGSGSGTQFTLTISGVQREDAATYYCLGSYSSSDSAFGGGTEVVVK
notes: Chimeric rabbit/human Fab, kappa, with 6xHis tag; also called Fab d301; d301 r/h-IgG1k
not listed: [6] | [7]
binds: all other assays above

B4: 3N07 (Fab, V domains shown)
VH: QSLEESGGRLVTPGTPLTLTCTVSGFSLSRYTMAWVRQAPGKGLEYIGWIDSSGSTYYASWAKGRFTISKTSSTTVDLKMTSLTTEDTATYFCASGNDGGDPLYYGMDPWGPGTLVTVSS
VL: DGVMTQTPSSTSAAVGGTVTIKCQASQSIRSWLSWYQQKPGQPPKLLIYEASKLASGVPSRFKGSRSGTEYTLAISGVQREDAATYYCLGSIASDDTAFGAGTNVEIK
notes: Chimeric rabbit/human Fab, kappa, with 6xHis tag; also called Fab 3N07; 3N07 r/h-IgG1k
binds: [1] | [2] | [3]

B5: 5S8 (Fab, V domains shown)
VH: QSVEESGGRLVTPGTPLTLTCTVSGFSLSSYAMTWVRQAPGKGLEWIGVIGTSGMRYYANWAKGRFTISKTSTTVDLKITSPTTEDTATYFCARANFYVGNDESTDAFDPWGPGTLVTVSS
VL: ALVMTQTPPSLSASVGETVRIRCLASEDIYNTISWYQQKPGKPPTLLIYGASNLKSGVPPRFSGSGSGTDYTLTIGGVQSEDAATYYCLGGYSYSSTGLTFGAGTKVEIK
notes: Chimeric rabbit/human Fab, kappa, with 6xHis tag in SPR, zymosan and JeKo-1 assays; also called Fab 5S8; 5S8 r/h-IgG1k
binds: [6] | [7] | [4]

B6: 3NS1 (Fab, V domains shown)
VH: QSVEESGGRLVTPGTPLTLTCTVSGFSLSNYIITWVRQAPGKGLEWIGMISTDGDTYYANWAKGRFTISKTSTTANLKITSPTTEDTATYFCARGLTNFFIWGPGTLVTVSS
VL: QPVLTQSPSVSAALGASAKLTCTLSSAHKTYSIGWYQQHQGEAPRFLMQLRRDGSYTKGTGVPDHFSGSSSGADRYLIIPNVQADDEADYYCGVDYDGGYVFGGGTQLTVTG
notes: Chimeric rabbit/human Fab, lambda, with 6xHis tag; also called 3NS1 r/h-IgG1λ
binds: [6] | [7] | [4]

B7: 3NS3 (Fab, V domains shown)
VH: QSLEESGGGLVTPGTPLTLTCTVSGIDLSAYAMTWVRQAPGKGLEWIGMISTDGATYYASWAKGRFTISKTSTTADLTITSPTTEDTATYFCARGLTNFFIWGPGTLVTISS
VL: QPVLTQSPSASATLGSSAKLTCTLSSAHSTYTIAWYQQKQGESPRCLMYLKSDGSYTRGTGVPDRFSGSSSGADRYLIIPNVQADDEADYYCGADYSGGYLFGGGTQLTVTG
notes: as for B1
binds: [1] | [2] | [3]

B8: 3N02 (Fab, V domains shown)
VH: QKQLVESGGRLVTPGGSLTLTCTISGIDLNTYGMTWVRQAPGKGLEYIGIIVSSGNTYYANWAQGRFTISKTSTTVDLKMTSLTASDTATYFCARGLGRAYSSGYGMDGWGPGTLVTVSS
VL: DPVLTQTPSSTSAAVGGTVTIKCQASQNIYTSLAWYQQKPGQPPKLLIYGASNLASGVPSRFKGSRSGTEYTLTISGVEREDAATYYCLGSYTQIDTTFGGGTKLEIK
notes: Chimeric rabbit/human Fab (rabbit variable domains, human kappa constant domain) with 6xHis tag in SPR, zymosan ELISA and flow cytometry; also called 3N02 r/h-IgG1k
not listed: [6] | [7]
binds: all other assays above

Source: patent US20230029635A1 (US Dept. of Health and Human Services, published 2023)
